Test results reported in PubChem BioAssay (Tox21).
Several values for one entry are separate records, joined by “and”; a condition that tells them apart may be missing. Identical values can stand only once. Inconclusive means that the source gave no clear call. Such entries were picked first, then a sample of the others. For some assays here: A potency beside an inconclusive call is a rough fit, not a confirmed value. Activity calls are given as the source filed them. Unless noted, the call rests on the fitted dose curve.

Sequences of proteins named here, by UniProt entry; tags and fusion partners are left off. A change or cut given only in a name is not applied to a line headed by its entry.
UniProt P14416, whole entry, looked up: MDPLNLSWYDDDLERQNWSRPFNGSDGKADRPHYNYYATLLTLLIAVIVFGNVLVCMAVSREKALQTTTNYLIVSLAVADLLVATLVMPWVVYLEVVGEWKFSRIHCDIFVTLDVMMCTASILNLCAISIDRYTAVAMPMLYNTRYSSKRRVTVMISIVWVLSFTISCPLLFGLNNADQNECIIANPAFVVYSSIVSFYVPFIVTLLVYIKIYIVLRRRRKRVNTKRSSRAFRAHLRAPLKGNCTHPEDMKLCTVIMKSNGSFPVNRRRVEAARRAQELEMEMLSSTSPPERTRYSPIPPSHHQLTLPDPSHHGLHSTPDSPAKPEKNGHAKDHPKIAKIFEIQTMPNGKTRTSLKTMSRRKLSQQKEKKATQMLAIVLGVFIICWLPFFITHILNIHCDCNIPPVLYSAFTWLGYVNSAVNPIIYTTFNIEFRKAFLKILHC
UniProt P28223, whole entry, looked up: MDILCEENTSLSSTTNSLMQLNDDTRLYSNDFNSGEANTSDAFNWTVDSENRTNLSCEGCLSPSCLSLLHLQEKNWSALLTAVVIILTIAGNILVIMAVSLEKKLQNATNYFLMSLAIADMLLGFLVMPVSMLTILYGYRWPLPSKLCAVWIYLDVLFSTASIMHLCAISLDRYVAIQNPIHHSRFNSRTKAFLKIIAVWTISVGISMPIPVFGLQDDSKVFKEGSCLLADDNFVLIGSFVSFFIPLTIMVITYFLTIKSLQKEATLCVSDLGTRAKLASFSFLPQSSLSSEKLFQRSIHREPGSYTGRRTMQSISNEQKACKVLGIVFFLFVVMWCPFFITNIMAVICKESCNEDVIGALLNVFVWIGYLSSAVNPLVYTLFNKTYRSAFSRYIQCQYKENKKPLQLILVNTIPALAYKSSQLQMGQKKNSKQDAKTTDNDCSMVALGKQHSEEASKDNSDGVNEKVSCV
UniProt P11229: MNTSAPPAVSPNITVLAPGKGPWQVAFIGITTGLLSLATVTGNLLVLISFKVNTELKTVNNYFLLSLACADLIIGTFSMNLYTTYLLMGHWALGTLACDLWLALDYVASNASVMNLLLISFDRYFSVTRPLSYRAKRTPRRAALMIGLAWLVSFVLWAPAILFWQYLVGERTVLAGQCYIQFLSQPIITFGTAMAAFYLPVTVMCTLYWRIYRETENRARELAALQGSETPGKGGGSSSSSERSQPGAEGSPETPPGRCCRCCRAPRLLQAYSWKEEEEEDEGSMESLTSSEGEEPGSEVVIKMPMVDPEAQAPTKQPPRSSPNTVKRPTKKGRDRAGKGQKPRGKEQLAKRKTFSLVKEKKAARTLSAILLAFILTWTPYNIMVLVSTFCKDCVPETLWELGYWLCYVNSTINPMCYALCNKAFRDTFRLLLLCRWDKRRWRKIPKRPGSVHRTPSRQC

How the values were obtained:
[1] = p53 small molecule agonists, cell-based qHTS assay with human liver microsomes (AID 1963577); conditions: HCT-116 p53RE-bla with human liver microsomes, ratio, 16 h; activation: at 66 µM (top of the series) unless noted; further: potency means the concentration at half of the fitted maximal effect;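 on activation: p53 response element beta-lactamase reporter cells with liver microsomes plus NADPH; on the % scale 0 is the no-effect control and ±100 the full control effect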
Procedure, shortened: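 Compounds act here after metabolic activation: human liver microsomes and NADPH, both at 0.5 mg/mL final, were co-added to p53RE-bla cells. Incubation ran 16 h at 37 C, followed by LiveBLAzer detection.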

[2] = p53 small molecule agonists, cell-based qHTS assay: qHTS cell viability counter screen (AID 1963581); further: nearly all actives have a fitted effect of over 45% in size; further: potency means the concentration at half of the fitted maximal effect
Procedure, shortened: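 In the same plates used for the p53 bla reporter, HCT-116 cells given compounds for 16 h at 37 C received CellTiter-Glo; luminescence was recorded 30 min later at room temperature.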

[3] = p53 small molecule agonists, cell-based qHTS assay with rat liver microsomes: qHTS cell viability counter screen (AID 1963580); further: potency means the concentration at half of the fitted maximal effect; nearly all actives have a fitted effect of over 45% in size
Procedure, shortened: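 In HCT-116 cells carrying a p53 response element-bla reporter, compounds were metabolically activated in situ by rat liver microsomes with NADPH over 16 h. Cell ATP content then served as the cytotoxicity measure.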

[4] = target: Beta-2 adrenergic receptor (Homo sapiens) (UniProt P07550); assay: Adrenergic beta2 receptor (ADRB2) small molecule agonists, cell-based qHTS assay (AID 1963593); conditions: CHO-ADRB2 cells, cAMP HTRF, 30 min; activation: at 92.4 µM (top of the series) unless noted; further: potency means the concentration at half of the fitted maximal effect;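 on activation: CHO cells stably overexpressing human ADRB2; on the % scale 0 is the no-effect control and ±100 the full control effect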
Procedure, shortened: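 CHO cells stably over-expressing ADRB2 were plated overnight at 37C, then dosed with compounds plus a stimulation mix containing 100uM IBMX and 25uM Ro-20-1724 for 0.5hr at room temperature. cAMP was measured by HTRF competition, 1hr.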

[5] = target: D(2) dopamine receptor (Homo sapiens) (UniProt P14416); assay: Dopamine D2 receptor (DRD2) small molecule antagonists, cell-based qHTS assay (AID 1963595; active means well fitted inhibition curve with a large enough effect in the signal ratio in the repeat runs, with a control signal flat; inconclusive means weak or mixed curves, or effect the other way; the % refers to the signal ratio; further: potency means the concentration at half of the fitted maximal effect; on activity change, negative = inhibition: on the % scale 0 is the no-effect control and ±100 the full control effect); conditions: HEK293-DRD2 cAMP HTRF antagonist mode; activity change, negative = inhibition: at 92.4 µM (top of the series) unless noted
Procedure, shortened: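 Readout: HTRF cAMP, cAMP-d2 competing with cellular cAMP for anti-cAMP cryptate, read after 1 h. Cells: DRD2-HEK293. Conditions: 0.1 mM Ro20-1724, 12 nM quinpirole, 200 nM NKH477, 30 min RT.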

[6] = p53 small molecule agonists, cell-based qHTS assay (AID 1963582; active means well fitted activation curve with a large enough effect in the signal ratio in the repeat runs, not every such curve was filed as active; inconclusive means weak or mixed curves; the % refers to the signal ratio; further: potency means the concentration at half of the fitted maximal effect; on activation: on the % scale 0 is the no-effect control and ±100 the full control effect); conditions: HCT-116 p53RE-bla reporter, beta-lactamase FRET ratio, 16 h; activation: at 66 µM (top of the series) unless noted
Procedure, shortened: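 Compounds are pin-transferred in DMSO onto p53RE-bla cells and incubated 16 h at 37 C. The B/G FRET beta-lactamase substrate is then applied for 2 h at RT and fluorescence recorded.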

[7] = target: 5-hydroxytryptamine receptor 2A (Homo sapiens) (UniProt P28223); assay: 5-hydroxytryptamine receptor 2A (HTR2A) small molecule antagonists, cell-based qHTS assay (AID 1963586); further: nearly all actives have a fitted effect of over 45% in size; further: potency means the concentration at half of the fitted maximal effect
Procedure, shortened: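 Antagonist-mode intracellular calcium assay: DOI (4 nM) added after 5 min compound pre-incubation at room temperature to dye-loaded HTR2A-CHO cells. Fluorescence followed for 3 min, sampled every second.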

[8] = cAMP Responsive Elements (CRE) small molecule agonists, cell-based qHTS assay (AID 1963590); conditions: CRE-bla HEK293T, beta-lactamase FRET ratio, 3 h; activation: at 92.4 µM (top of the series) unless noted; further: potency means the concentration at half of the fitted maximal effect
Procedure, shortened: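 Cell line: CRE-bla HEK 293T; medium DMEM/10% dialyzed FBS/0.1 mM NEAA/1 mM pyruvate/25 mM HEPES; 3 h compound exposure; beta-lactamase FRET readout after 2 h substrate loading at RT.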

[9] = cAMP Responsive Elements (CRE) small molecule antagonists, cell-based qHTS assay (AID 1963591; active means well fitted inhibition curve with a large enough effect in the signal ratio in the repeat runs, not every such curve was filed as active; inconclusive means weak or mixed curves, or effect the other way; the % refers to the signal ratio; further: potency means the concentration at half of the fitted maximal effect); conditions: CRE-bla HEK293T, beta-lactamase FRET ratio; activity change, negative = inhibition: at 92.4 µM (top of the series) unless noted
Procedure, shortened: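 Inhibition of NKH477-driven (0.25 uM final) CRE-beta-lactamase signal in HEK293T cells, 3 h compound exposure at 37 °C, detected by FRET substrate fluorescence.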

[10] = target: D(2) dopamine receptor (Homo sapiens) (UniProt P14416); assay: Dopamine D2 receptor (DRD2) small molecule agonists, cell-based qHTS assay (AID 1963594); conditions: HEK293-DRD2 cAMP HTRF, agonist mode, 30 min; activation: at 92.4 µM (top of the series) unless noted; further: on the % scale 0 is the no-effect control and ±100 the full control effect; nearly all actives have a fitted effect of over 35% in size
Procedure, shortened: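 HEK293 cells stably expressing DRD2 were cultured 24 h at 37 C, then given Ro20-1724 (0.1 mM final) and compounds for 10 min at room temperature. NKH477 (200nM) was then added for 30 min. cAMP was read by HTRF.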

[11] = target: Beta-2 adrenergic receptor (Homo sapiens) (UniProt P07550); assay: Adrenergic beta2 receptor (ADRB2) small molecule antagonists, cell-based qHTS assay (AID 1963592); conditions: CHO-ADRB2 cells, isoproterenol-stimulated cAMP HTRF ratio, 0.5 h; activity change, negative = inhibition: at 92.4 µM (top of the series) unless noted; further: nearly all actives have a fitted effect of over 50% in size; further: potency means the concentration at half of the fitted maximal effect
Procedure, shortened: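 Cells (CHO, stable ADRB2 overexpression) incubated 18-20hr at 37C; compounds added from DMSO; agonist mix (1nM isoproterenol, 100uM IBMX, 25uM Ro-20-1724) added; 0.5hr RT; d2-cAMP and anti-cAMP-cryptate added; 1hr RT; 665/615 nm read.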

[12] = target: Muscarinic acetylcholine receptor M1 (Homo sapiens) (UniProt P11229); assay: Cholinergic receptor muscarinic 1 (CHRM1) small molecule antagonists, cell-based qHTS assay (AID 1963588); further: potency means the concentration at half of the fitted maximal effect; nearly all actives have a fitted effect of over 40% in size
Procedure, shortened: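 CHRM1-CHO calcium-flux assay, antagonist mode. Cells were seeded 18 h, dye-loaded 1 h at 37 C and given compound for 5 min at RT, then acetylcholine was added at 50nM. FDSS fluorescence was read 3 min; 15 concentrations, three runs.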

SMILES: C=C(C)C(=O)OCC(C)(C)COC(=O)C(=C)C
- Potency [1]: inactive
- Potency [2]: inactive

SMILES: CCCCNC(=O)NCCCC
- Potency [1]: inconclusive: 20.4 µM [activator]
- Potency [3]: inconclusive: 51.3 µM [rising, partial curve, poor fit]
- Potency [4]: inactive
- activity change, negative = inhibition [5]: inconclusive: -24.9%

SMILES: O=C(c1ccccc1)c1ccc(O)c(O)c1O
- Potency [1]: inconclusive: 45.8 µM [fluorescent, single point]
- Potency [2]: inconclusive: 45.8 µM [rising, single point]
- Potency [6]: inconclusive: 41.1 µM [rising, partial curve] and inconclusive: 40.8 µM [rising, partial curve]
- Potency [4]: inconclusive: 77.6 µM [cytotoxic, partial curve, poor fit]
- activity change, negative = inhibition [5]: inconclusive: -14.1%

SMILES: COc1cc(-c2ccc(=O)[nH]n2)ccc1OC(F)F
- Potency [1]: inconclusive: 2.81 µM [fluorescent, partial curve, poor fit]
- Potency [2]: inconclusive: 5 µM [rising, partial curve, poor fit]
- Potency [6]: inactive
- Potency [7]: inconclusive: 0.41 µM [inhibitor, single point]
- Potency [8]: active: 13.3 µM
- Potency [4]: inactive

SMILES: Cc1c(-c2cccnc2)c2ccccc2n1CCCCC(=O)O
- Potency [1]: inconclusive: 36.3 µM [fluorescent, partial curve]
- Potency [2]: inconclusive: 36.3 µM [rising, partial curve]
- Potency [8]: inconclusive: 30.6 µM [rising, partial curve]
- Potency [9]: inconclusive: 30.6 µM [fluorescent]
- Potency [4]: inconclusive: 6.11 µM [inhibitor, single point]
- Potency [10]: inactive
- activity change, negative = inhibition [5]: inconclusive: 15.4%

SMILES: C=CC(C)(CCC=C(C)C)OC=O (stereo unspecified)
- Potency [1]: inactive
- Potency [2]: inactive
- Potency [7]: inactive
- Potency [4]: inactive

SMILES: O=C(O)CN1C(=O)c2cccc3cccc(c23)C1=O
- Potency [1]: inconclusive: 14.1 µM [fluorescent, partial curve]
- Potency [2]: inconclusive: 25.1 µM [rising, single point]
- activation [4]: inconclusive: 4.45% [at 42.5 µM]

SMILES: c1ccc(Cc2ccccc2)cc1
- activation [1]: inconclusive: 13.1%
- Potency [2]: inconclusive: 28.9 µM [rising, partial curve]
- Potency [6]: inactive
- activation [4]: inconclusive: -17.2%

SMILES: Cc1[nH]c(=O)c(C#N)cc1-c1ccncc1
- Potency [1]: inconclusive: 40.8 µM [fluorescent, partial curve]
- Potency [2]: inconclusive: 51.3 µM [cytotoxic, single point]
- Potency [8]: inconclusive: 25.8 µM [fluorescent]
- Potency [9]: inconclusive: 11.4 µM [activator, full curve]
- Potency [11]: inconclusive: 34.4 µM [falling, partial curve]
- Potency [4]: inconclusive: 13.7 µM [inhibitor, partial curve] and inactive
- Potency [5]: inconclusive: 27.3 µM [inhibitor]

SMILES: CC[C@H](NC(=O)c1cc(F)ccc1NS(=O)(=O)c1cccc2cccnc12)c1ccccc1
- Potency [1]: inactive
- Potency [2]: inactive
- Potency [8]: inconclusive: 64.9 µM [rising, single point]
- Potency [9]: inconclusive: 64.9 µM [activator]
- activity change, negative = inhibition [11]: inconclusive: -33.8%
- Potency [4]: inconclusive: 64.9 µM [inhibitor, single point]

SMILES: Nc1nc(F)nc2c1ncn2[C@@H]1O[C@H](CO)[C@@H](O)[C@@H]1O
- Potency [1]: inconclusive: 8.9 µM [activator, partial curve]
- Potency [6]: inconclusive: 7.93 µM

SMILES: COc1c(C)c2c(c(O)c1C/C=C(\C)CCC(=O)OCCN1CCOCC1)C(=O)OC2
- Potency [1]: inactive
- Potency [2]: inactive
- Potency [6]: inconclusive: 0.177 µM [activator, full curve]
- Potency [8]: inconclusive: 13.3 µM [fluorescent, partial curve]
- activity change, negative = inhibition [9]: inconclusive: 18.4% [at 42.4 µM]

SMILES: CN(C)CCN(Cc1ccccc1)c1ccccn1
- activation [1]: inconclusive: 17.6% [at 30.3 µM]
- Potency [2]: inconclusive: 1.58 µM
- Potency [6]: inconclusive: 1.41 µM [rising, full curve, poor fit]
- Potency [7]: active: 7.29 µM
- Potency [4]: inactive

SMILES: CCCNC(C)C(=O)Nc1c(C)csc1C(=O)OC (stereo unspecified)
- activation [1]: inconclusive: 2.92% [at 30.3 µM]
- Potency [2]: inconclusive: 12.6 µM [cytotoxic, single point]
- Potency [4]: inactive

SMILES: Fc1ccc(C(c2ccc(F)cc2)N2CCNCC2)cc1
- Potency [1]: inconclusive: 12.6 µM [fluorescent]
- Potency [2]: inconclusive: 4.46 µM [cytotoxic, single point]
- Potency [7]: inconclusive: 1.83 µM [inhibitor, full curve, poor fit]
- Potency [12]: active: 2.9 µM
- Potency [8]: inactive
- Potency [9]: inactive
- Potency [11]: inactive
- activation [4]: inconclusive: -0.0233% [at 42.5 µM]
